Source: PubChem BioAssay AID504791 (Drosophila RNAi Screening Center, 2011)
Purpose: 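Factors in Argonaute-based small RNA production and activity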 (primary screen). Cells: Drosophila S2-derived reporter cells. Reagents: long dsRNA against Drosophila genes, about 150-250 ng dsRNA per well (siRNA assay); about 80-120 ng (miRNA assay). Duration: about 5 days (siRNA assay); about 4 days (miRNA assay). Challenge: copper sulfate induction of reporters: 25 µM (siRNA assay); 200 mM stated (miRNA assay), 1-2 days before reading. Measured: 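Per-well ratio of Renilla over firefly light, expressed relative to that plate's average ratio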. Reading the numbers: siRNA reporter hit score: higher = 3 marks a strong hit with raised ratio; -3 a strong hit with lowered ratio. Units: stable assay Renilla, run 1 in luminescence; stable assay firefly, run 1 in luminescence. Call rule: 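First-pass picks had plate-scaled ratios over 1.5 for the siRNA assay, over 1.6 for the miRNA assay, or under 0.6; two distinct dsRNAs had to score alike on retest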.
The deposit covers about 23,000 reagents; this is an unselected part of those that have a named target and a result. In the full data, 199 (0.86%) were called active. 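Plate-scaled ratios behind the calls are not deposited; printed light signals are raw; many rows marked increased or decreased are still called inactive.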 A number with no mark means an inactive call. The numbers tell different reagents against one gene apart. Names joined by + are all predicted targets of the reagent.

Against Spn85F (GeneID 41221), the values are stable assay Renilla, run 1 = 5222; stable assay firefly, run 1 = 5.08e5.
With knock-down of twi (GeneID 37655) #1, the record shows stable assay Renilla, run 1 = 4592; stable assay firefly, run 1 = 2.31e5.
Against twi (GeneID 37655) #2, the values are stable assay Renilla, run 1 = 3799; stable assay firefly, run 1 = 3.05e5.
With knock-down of mus302 (GeneID 39874) the results were stable assay Renilla, run 1 = 6958; stable assay firefly, run 1 = 3.16e5.
With knock-down of RpL10Aa (GeneID 41811), the screen gave stable assay Renilla, run 1 = 7902; stable assay firefly, run 1 = 3.59e5.
CG15147 (GeneID 35069) #1 showed stable assay Renilla, run 1 = 4947; stable assay firefly, run 1 = 4.12e5.
Knock-down of CG15147 (GeneID 35069) #2 resulted in: stable assay Renilla, run 1 = 8021; stable assay firefly, run 1 = 6.29e5.
With knock-down of CG12541 (GeneID 31650) #1 the results were stable assay Renilla, run 1 = 5315; stable assay firefly, run 1 = 4.11e5.
Against CG12541 (GeneID 31650) #2 the deposit lists stable assay Renilla, run 1 = 6131; stable assay firefly, run 1 = 4.38e5.
Against sona (GeneID 37762) #1, the entry reads stable assay Renilla, run 1 = 6106; stable assay firefly, run 1 = 4.23e5.
For sona (GeneID 37762) #2, the entry reads stable assay Renilla, run 1 = 6472; stable assay firefly, run 1 = 3.12e5.
sona (GeneID 37762) #3 scored stable assay Renilla, run 1 = 7122; stable assay firefly, run 1 = 3.59e5.
For tai (GeneID 34242) #1 the deposit lists stable siRNA reporter change reporter ratio raised past the hit cutoff; stable assay Renilla, run 1 = 6214; stable assay firefly, run 1 = 2.00e5.
With knock-down of tai (GeneID 34242) #2 the results were stable assay Renilla, run 1 = 7139; stable assay firefly, run 1 = 4.43e5.
Atac1 (GeneID 33977) gave stable assay Renilla, run 1 = 7442; stable assay firefly, run 1 = 4.73e5.
Knock-down of CG4927 (GeneID 36852) came out at: stable assay Renilla, run 1 = 6695; stable assay firefly, run 1 = 3.21e5.
After knock-down of nAChRbeta3 (GeneID 33228), the record shows stable assay Renilla, run 1 = 10484; stable assay firefly, run 1 = 2.51e5.
Against CG31560 (GeneID 40772), the entry reads stable assay Renilla, run 1 = 6722; stable assay firefly, run 1 = 5.12e5.
CG31807 (GeneID 318953) gave stable assay Renilla, run 1 = 5788; stable assay firefly, run 1 = 4.47e5.
For CG3916 (GeneID 41484) the deposit lists stable assay Renilla, run 1 = 6080; stable assay firefly, run 1 = 3.54e5.
Depletion of CG15406 (GeneID 33542) came out at: stable assay Renilla, run 1 = 7083; stable assay firefly, run 1 = 4.28e5.
After knock-down of TwdlJ (GeneID 43206) the results were stable siRNA reporter change reporter ratio lowered past the hit cutoff; stable assay Renilla, run 1 = 6203; stable assay firefly, run 1 = 7.26e5.
Silencing of CG5114 (GeneID 39624) came out at: stable siRNA reporter change reporter ratio raised past the hit cutoff; stable assay Renilla, run 1 = 21619; stable assay firefly, run 1 = 4.86e5.

3 entries from above in another layout:
{"target":"tai (GeneID 34242)","reagent no.":1,"stable siRNA reporter change":"reporter ratio raised past the hit cutoff","stable assay Renilla, run 1":6214,"stable assay firefly, run 1":2.00e5}
{"target":"tai (GeneID 34242)","reagent no.":2,"stable assay Renilla, run 1":7139,"stable assay firefly, run 1":4.43e5}
{"target":"Atac1 (GeneID 33977)","reagent no.":1,"stable assay Renilla, run 1":7442,"stable assay firefly, run 1":4.73e5}

The listing continues:
Depletion of Mst57Da + alpha4GT2 gave: stable assay Renilla, run 1 = 7587; stable assay firefly, run 1 = 5.84e5.
kek3 (GeneID 34912) #1 gave stable assay Renilla, run 1 = 5408; stable assay firefly, run 1 = 4.13e5.
Against kek3 (GeneID 34912) #2, the values are stable assay Renilla, run 1 = 3539; stable assay firefly, run 1 = 3.55e5.
Against CG33791 + CG12105 + CG18170, the values are stable assay Renilla, run 1 = 11594; stable assay firefly, run 1 = 3.82e5.
Knock-down of Hat1 (GeneID 40716) resulted in: stable assay Renilla, run 1 = 7367; stable assay firefly, run 1 = 3.42e5.
With knock-down of dikar (GeneID 38747) #1, the record shows stable assay Renilla, run 1 = 7746; stable assay firefly, run 1 = 4.02e5.
Against dikar (GeneID 38747) #2, the entry reads stable assay Renilla, run 1 = 8402; stable assay firefly, run 1 = 5.49e5.
For Cpr49Ab (GeneID 36345) the deposit lists stable assay Renilla, run 1 = 4950; stable assay firefly, run 1 = 3.10e5.
After knock-down of Spf45 (GeneID 3355114) the results were stable assay Renilla, run 1 = 7450; stable assay firefly, run 1 = 3.47e5.
After knock-down of cib (GeneID 31359), the screen gave stable assay Renilla, run 1 = 4032; stable assay firefly, run 1 = 3.08e5.
Depletion of CG12436 (retired record) (GeneID 39838) #1 resulted in: siRNA reporter hit score -3; stable assay Renilla, run 1 = 7111; stable assay firefly, run 1 = 5.13e5.
CG12436 (retired record) (GeneID 39838) #2 scored stable assay Renilla, run 1 = 7075; stable assay firefly, run 1 = 4.00e5.
